Laboratory results taken from PubChem BioAssay AID256 (DTP/NCI, 2004).
The list is a part of this screen's results and no random one: it is rich in T/C values a quarter to a half above the control, in often repeated tests (any T/C) and in doses without a T/C. Other doses and runs of a compound stand elsewhere. T/C: endpoint of the treated group in % of that of the vehicle group. Some doses have a count of surviving animals in place of a T/C: the source holds a T/C of zero for them, seemingly a mark for toxic or unscored doses. Some doses without a T/C left all or most animals alive at the check, yet need not have been tolerated: the source hardly ever lists a survival T/C far under the control, and the zero likely stands for such cases as well. Counts of survivors are from the toxicity check (mostly the fifth day) where no day follows; animals may have died later. Schedules are NCI's codes, read here as Q, the interval in days (D) or hours (H), X, the number of doses. Some entries hold several experiments; their values stand side by side, smallest first. For survival time, the PubChem record calls one and a half times the control and up active, and a quarter to a half above the control has no call in these data; cut-offs in other NCI protocols can differ. Some T/C values are followed by the survivors on the day toxicity was checked, most often the fifth; without a count, all were alive then. Marks such as (2×) give the number of equal values in this list.

Test system: CD2F1 mice, L1210 leukemia ip, survival T/C
Test: NCI In Vivo Anticancer Drug Screen. Data for tumor model L1210 Leukemia (intraperitoneal) in CD2F1 (CDF1) mice
Conditions: higher T/C = longer survival
How it was run: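 Antitumor effect is scored in animals hosting a serially transplanted tumor. Values compare compound-dosed animals against vehicle-only controls as a simple quotient.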

[1] = T/C endpoint: median survival time, dose: 16.0 mg/kg/injection, schedule: Q04DX002 (ip), vehicle: saline with Tween-80

**Q.** Which T/C (T/C endpoint: median survival time, dose: 25.0 mg/kg/injection, schedule: Q01DX009 (ip), vehicle: saline with Tween-80) does the source give for `NS(=O)(=O)OCCCCCCCOS(N)(=O)=O` here?
**A.** 125, 128, 129, 145 % of control

**Q.** And the T/C (T/C endpoint: median survival time, dose: 50.0 mg/kg/injection, schedule: Q01DX009 (ip), vehicle: saline with Tween-80)?
**A.** 141, 153, 171, 191 % of control

**Q.** What about the T/C (T/C endpoint: median survival time, dose: 100.0 mg/kg/injection, schedule: Q01DX009 (ip), vehicle: saline with Tween-80) of the same molecule?
**A.** 107, 113, 141, 153 % of control

**Q.** And the survivor count (T/C endpoint: median survival time, dose: 200.0 mg/kg/injection, schedule: Q01DX009 (ip), vehicle: saline with Tween-80)?
**A.** 10 of 10 and 6 of 6

**Q.** And the survivor count (T/C endpoint: median survival time, dose: 400.0 mg/kg/injection, schedule: Q01DX009 (ip), vehicle: saline with Tween-80)?
**A.** 6 of 6

**Q.** Which results are given for `NCC1CCCC1N` (configuration not stated)?
**A.** survivor count (T/C endpoint: mean survival time, dose: 100.0 mg/kg/injection, schedule: Q01DX001 (ip), vehicle: saline): 3 of 6; survivor count (T/C endpoint: mean survival time, dose: 200.0 mg/kg/injection, schedule: Q01DX001 (ip), vehicle: saline): 2 of 6; survivor count (T/C endpoint: mean survival time, dose: 400.0 mg/kg/injection, schedule: Q01DX001 (ip), vehicle: saline): 0 of 6

**Q.** `CC[C@@]1(O)C(=O)OCc2c1cc1n(c2=O)Cc2cc3ccccc3nc2-1` was tested. Which T/C (T/C endpoint: mean survival time, dose: 6.25 mg/kg/injection, schedule: Q04DX003 (ip), vehicle: water) did it give?
**A.** 146 % of control [5 of 6 alive]

**Q.** And the survivor count (T/C endpoint: mean survival time, dose: 12.5 mg/kg/injection, schedule: Q04DX003 (ip), vehicle: other)?
**A.** 5 of 6

**Q.** What about the survivor count (T/C endpoint: mean survival time, dose: 25.0 mg/kg/injection, schedule: Q04DX003 (ip), vehicle: other) of the same molecule?
**A.** 1 of 6

**Q.** What about the survivor count (T/C endpoint: mean survival time, dose: 50.0 mg/kg/injection, schedule: Q04DX003 (ip), vehicle: other) of the same molecule?
**A.** 2 of 6

**Q.** What about the survivor count (T/C endpoint: mean survival time, dose: 100.0 mg/kg/injection, schedule: Q04DX003 (ip), vehicle: other) of the same molecule?
**A.** 0 of 6

**Q.** What about the survivor count (T/C endpoint: mean survival time, dose: 200.0 mg/kg/injection, schedule: Q04DX003 (ip), vehicle: other) of the same molecule?
**A.** 0 of 6

**Q.** What about the T/C (T/C endpoint: median survival time, dose: 1.0 mg/kg/injection, schedule: Q04DX002 (ip), vehicle: saline with Tween-80) of the same molecule?
**A.** 102, 110 (2×), 116, 122, 128 (2×), 135, 146, 147 % of control [5 of 6 alive]

**Q.** And the T/C (T/C endpoint: median survival time, dose: 1.25 mg/kg/injection, schedule: Q04DX002 (ip), vehicle: saline with Tween-80)?
**A.** 118 (2×), 119, 120, 122, 124, 127, 129, 131, 132, 156, 162 % of control

**Q.** And the T/C (T/C endpoint: median survival time, dose: 2.0 mg/kg/injection, schedule: Q04DX002 (ip), vehicle: saline with Tween-80)?
**A.** 113, 124, 125 [5 of 6 alive], 127, 133, 134, 135, 150, 154, 166 % of control

**Q.** What about the T/C (T/C endpoint: median survival time, dose: 2.5 mg/kg/injection, schedule: Q04DX002 (ip), vehicle: saline with Tween-80, evaluated on day 22) of the same molecule?
**A.** 148 % of control

**Q.** And the T/C (T/C endpoint: median survival time, dose: 2.5 mg/kg/injection, schedule: Q04DX002 (ip), vehicle: saline with Tween-80, evaluated on day 30)?
**A.** 125, 129, 131, 136, 141, 142 (2×), 146, 147, 152, 154, 157, 162 % of control

**Q.** What about the T/C (T/C endpoint: median survival time, dose: 2.5 mg/kg/injection, schedule: Q04DX002 (ip), vehicle: saline with Tween-80, evaluated on day 36) of the same molecule?
**A.** 157 % of control

**Q.** What about the T/C (T/C endpoint: median survival time, dose: 2.5 mg/kg/injection, schedule: Q04DX002 (ip), vehicle: saline with Tween-80, evaluated on day 46) of the same molecule?
**A.** 132 % of control

**Q.** And the T/C (T/C endpoint: median survival time, dose: 4.0 mg/kg/injection, schedule: Q04DX002 (ip), vehicle: saline with Tween-80)?
**A.** 114, 125, 131, 146 (2×), 147, 152, 177, 182, 205 % of control

**Q.** What about the T/C (T/C endpoint: median survival time, dose: 5.0 mg/kg/injection, schedule: Q04DX002 (ip), vehicle: saline with Tween-80, evaluated on day 22) of the same molecule?
**A.** 166 % of control

**Q.** What about the T/C (T/C endpoint: median survival time, dose: 5.0 mg/kg/injection, schedule: Q04DX002 (ip), vehicle: saline with Tween-80, evaluated on day 30) of the same molecule?
**A.** 131, 142, 149, 153, 157, 162, 166 (3×), 185, 195, 202, 215 % of control

**Q.** What about the T/C (T/C endpoint: median survival time, dose: 5.0 mg/kg/injection, schedule: Q04DX002 (ip), vehicle: saline with Tween-80, evaluated on day 36) of the same molecule?
**A.** 178 % of control

**Q.** What about the T/C (T/C endpoint: median survival time, dose: 5.0 mg/kg/injection, schedule: Q04DX002 (ip), vehicle: saline with Tween-80, evaluated on day 46) of the same molecule?
**A.** 153 % of control

**Q.** And the T/C (T/C endpoint: median survival time, dose: 8.0 mg/kg/injection, schedule: Q04DX002 (ip), vehicle: saline with Tween-80)?
**A.** 100, 125, 159, 164, 179 (2×), 197, 229, 239, 303 % of control

**Q.** And the T/C (T/C endpoint: median survival time, dose: 10.0 mg/kg/injection, schedule: Q04DX002 (ip), vehicle: saline with Tween-80, evaluated on day 22)?
**A.** 180 % of control

**Q.** And the T/C (T/C endpoint: median survival time, dose: 10.0 mg/kg/injection, schedule: Q04DX002 (ip), vehicle: saline with Tween-80, evaluated on day 30)?
**A.** 158, 160, 170, 175, 179, 181, 186, 189, 198, 219, 250, 267, 361 % of control

**Q.** What about the T/C (T/C endpoint: median survival time, dose: 10.0 mg/kg/injection, schedule: Q04DX002 (ip), vehicle: saline with Tween-80, evaluated on day 36) of the same molecule?
**A.** 208 % of control

**Q.** What about the T/C (T/C endpoint: median survival time, dose: 10.0 mg/kg/injection, schedule: Q04DX002 (ip), vehicle: saline with Tween-80, evaluated on day 46) of the same molecule?
**A.** 173 % of control

**Q.** What about the T/C (T/C endpoint: median survival time, dose: 15.0 mg/kg/injection, schedule: Q04DX002 (ip), vehicle: saline with Tween-80, evaluated on day 22) of the same molecule?
**A.** 196 % of control

**Q.** And the T/C (T/C endpoint: median survival time, dose: 15.0 mg/kg/injection, schedule: Q04DX002 (ip), vehicle: saline with Tween-80, evaluated on day 30)?
**A.** 200 % of control

**Q.** What about the T/C (T/C endpoint: median survival time, dose: 15.0 mg/kg/injection, schedule: Q04DX002 (ip), vehicle: saline with Tween-80, evaluated on day 36) of the same molecule?
**A.** 265 % of control

**Q.** And the T/C (T/C endpoint: median survival time, dose: 15.0 mg/kg/injection, schedule: Q04DX002 (ip), vehicle: saline with Tween-80, evaluated on day 46)?
**A.** 215 % of control

**Q.** And the T/C [1]?
**A.** 138, 146, 186 % of control

**Q.** And the survivor count [1]?
**A.** 6 of 6
